{
  "sequences": {"note": "Sequences of proteins named here, by UniProt entry; tags and fusion partners are left off.", "UniProt Q13547": "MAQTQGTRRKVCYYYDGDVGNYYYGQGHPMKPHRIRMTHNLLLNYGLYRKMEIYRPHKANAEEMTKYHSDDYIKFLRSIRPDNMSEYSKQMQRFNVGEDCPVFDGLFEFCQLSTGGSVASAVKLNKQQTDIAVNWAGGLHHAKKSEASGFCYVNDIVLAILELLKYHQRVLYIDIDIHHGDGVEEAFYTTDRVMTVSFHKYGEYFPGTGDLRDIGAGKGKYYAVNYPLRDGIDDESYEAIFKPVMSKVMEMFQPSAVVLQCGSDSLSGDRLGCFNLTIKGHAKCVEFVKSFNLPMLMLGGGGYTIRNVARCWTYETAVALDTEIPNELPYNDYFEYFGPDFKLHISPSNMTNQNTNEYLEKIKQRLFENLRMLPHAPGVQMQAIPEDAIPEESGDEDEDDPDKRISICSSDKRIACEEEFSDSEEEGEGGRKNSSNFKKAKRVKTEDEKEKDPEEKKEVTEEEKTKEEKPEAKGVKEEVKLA"},
  "source": "paper PMC3837015",
  "key": {"[1]": {"target": "T1, BiFC maspin^WT YC (maspin-YC fusion protein) (human) (UniProt P36952)", "T1 sequence": "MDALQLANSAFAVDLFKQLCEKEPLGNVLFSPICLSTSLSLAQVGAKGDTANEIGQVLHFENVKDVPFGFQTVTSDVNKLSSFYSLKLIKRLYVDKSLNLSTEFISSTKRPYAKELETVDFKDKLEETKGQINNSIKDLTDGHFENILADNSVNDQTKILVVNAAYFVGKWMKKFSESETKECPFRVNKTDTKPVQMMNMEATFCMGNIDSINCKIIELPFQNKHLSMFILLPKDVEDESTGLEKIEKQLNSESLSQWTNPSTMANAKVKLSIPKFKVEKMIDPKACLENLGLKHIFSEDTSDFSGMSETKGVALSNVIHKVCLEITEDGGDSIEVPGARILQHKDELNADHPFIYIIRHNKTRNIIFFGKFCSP", "assay": "split reporter; BiFC with YFP fragments: maspin-YC and HDAC1-YN co-expressed by double transient transfection in live PC3 and DU145 cells; fluorescent complexes matured 24 hrs at 30°C before live cell imaging"}, "[2]": {"target": "T2, BiFC maspin^D346E YC (human) (UniProt P36952)", "T2 sequence": "T1 sequence with D346E", "assay": "split reporter; BiFC with YFP fragments: maspin-YC and HDAC1-YN co-expressed by double transient transfection in live PC3 and DU145 cells; fluorescent complexes matured 24 hrs at 30°C before live cell imaging"}},
  "note": "Substitutions are numbered along the chain they refer to. No constants are given. Whether binding was seen depends on the method and setting. Binding seen in cells or lysates may run through a third protein. Some binding calls cover weakened binding; strength is not graded here. For some assays here: Tags and fused reporters may be left off the sequences shown.",
  "data": [
    {"substance": "BiFC HDAC1YN (HDAC1-YN fusion protein) (from UniProt Q13547 1-482) (enzyme)", "values": [
      {"measurement": "binding", "setting": "[1]", "value": "binds"},
      {"measurement": "binding", "setting": "[2]", "value": "binds"}
    ]}
  ]
}
